The target in one assay is JUN-Flag (UniProt P05627). Description: affinity purification with mass spectrometry; IP with Flag antibody from JUN-Flag TetON mESCs after Dox for 0, 8 and 24 h; 8 h or 24 h compared with 0 h; label-free quantification, triplicate, thresholds P = 0.01 and fold change 2.
Assay [1] has as its target SS18 (mouse (endogenous in mESCs)) (UniProt Q62280). The experiment in a line: affinity purification with mass spectrometry; endogenous SS18 IP (SS18 antibody against matched IgG) from 1 mg whole cell extract of Jun-Flag TetON mESCs after Dox for 0, 8 and 24 h; lysis buffer 50 mM Tris pH 8.0, 150 mM NaCl, 10% glycerol, 0.5% NP40; overnight 4 °C, Protein A/G magnetic beads, on-bead digestion; label-free quantification, triplicate.

The chains behind the UniProt entries cited, without tags or fusion partners.
UniProt P05627: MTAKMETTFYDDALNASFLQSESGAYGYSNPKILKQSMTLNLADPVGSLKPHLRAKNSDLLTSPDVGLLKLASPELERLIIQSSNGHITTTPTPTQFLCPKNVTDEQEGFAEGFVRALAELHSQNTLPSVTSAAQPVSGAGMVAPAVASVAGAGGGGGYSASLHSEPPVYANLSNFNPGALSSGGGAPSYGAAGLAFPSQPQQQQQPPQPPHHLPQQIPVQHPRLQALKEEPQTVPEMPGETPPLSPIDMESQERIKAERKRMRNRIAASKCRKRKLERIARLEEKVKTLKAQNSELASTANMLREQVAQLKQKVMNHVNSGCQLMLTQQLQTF
UniProt Q62280: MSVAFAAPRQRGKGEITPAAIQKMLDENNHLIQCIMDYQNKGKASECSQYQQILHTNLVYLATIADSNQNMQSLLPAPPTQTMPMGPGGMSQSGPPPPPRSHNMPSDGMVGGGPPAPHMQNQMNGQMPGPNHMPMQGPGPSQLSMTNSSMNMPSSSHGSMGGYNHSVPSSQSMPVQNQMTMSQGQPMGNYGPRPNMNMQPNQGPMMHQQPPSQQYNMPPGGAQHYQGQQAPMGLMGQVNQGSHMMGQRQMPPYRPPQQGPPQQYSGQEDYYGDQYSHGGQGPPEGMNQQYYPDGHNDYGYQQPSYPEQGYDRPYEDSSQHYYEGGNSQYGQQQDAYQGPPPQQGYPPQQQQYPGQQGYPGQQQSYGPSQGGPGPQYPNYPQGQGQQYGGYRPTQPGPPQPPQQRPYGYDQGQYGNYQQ
UniProt P28033: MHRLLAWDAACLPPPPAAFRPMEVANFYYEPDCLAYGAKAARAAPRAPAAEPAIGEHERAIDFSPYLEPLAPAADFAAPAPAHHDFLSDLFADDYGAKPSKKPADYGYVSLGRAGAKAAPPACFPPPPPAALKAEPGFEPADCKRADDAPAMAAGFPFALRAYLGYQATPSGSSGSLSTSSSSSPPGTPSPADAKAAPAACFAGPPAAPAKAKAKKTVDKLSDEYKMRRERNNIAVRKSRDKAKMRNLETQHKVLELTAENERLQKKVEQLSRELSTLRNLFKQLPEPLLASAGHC

We go through six molecules from article PMC9204951.

These are yes or no findings as the source states them, for the method shown. Binding seen in cells or lysates may run through a third protein. These calls come from enrichment with a bait or labelling near it, and not all partners need be listed. No binding means not detected with the bait.

Regarding SS18 (from UniProt Q62280 1-418), the binding result with JUN-Flag is listed as “no binding”. Consider CEBPB (from UniProt P28033 1-296), for which the binding entry (with JUN-Flag; in assay [1]) was “binds” in each case.

JUN-Flag (from UniProt P05627 1-334): the binding entry in assay [1] is “no binding”.

B1: CEBPG (protein, UniProt P53568 1-150)
chain: MSKLSQPATTPGVNGISVIHTQAHASGLQQVPQLVPAGPGGGGKAVPPSKQSKKSSPMDRNSDEYRQRRERNNMAVKKSRLKSKQKAQDTLQRVNQLKEENERLEAKIKLLTKELSVLKDLFLEHAHSLADNVQPISTETTATNSDNPGQ
For B1, the binding result (with JUN-Flag; in assay [1]) was “binds” in each case.

B2: ZSAN4F (protein, UniProt Q3URS2 1-506)
chain: MASQQAPAKDLQTNNLEFTPTDSSGVQWAEDISNSPSAQLNFSPSNNGCWATQELQSLWKMFNSWLQPEKQTKEQMISQLVLEQFLLTGHCKDKYALTEKWKASGSDMRRFMESLTDECLKPPVMVHVSMQGQEALFSENMPLKEVIKLLKQQQSATRPTPDNEQMPVDTTQDRLLATGQENSENECNNSCNATEANVGESCSGNEMDSLLIMQKEQHPEHEEGNVVCQFPHGARRASQGTPSHHVDFPSAPTTADVPMEEQPKDLSRENISEDKNNCYNTSRNAATQVYSGDNIPRNKSDSLFINKRIYHPEPEVGDIPYGVPQDSTRASQGTSTCLQESLGECFSEKDPREVPGLQSRQEQLISDPVLLGKNHEANLPCESHQKRFCRDAKLYKCEECSRMFKHARSLSSHQRTHLNKKSELLCVTCQKMFKRVSDRRTHEIIHMPEKPFKCSTCEKSFSHKTNLKSHEMIHTGEMPYVCSLCSRRFRQSSTYHRHLRNYHRSD
B2: the binding result (in the assay with JUN-Flag; in assay [1]) was “binds” throughout.

B3: NANOG (protein, UniProt Q80Z64 1-305)
chain: MSVGLPGPHSLPSSEEASNSGNASSMPAVFHPENYSCLQGSATEMLCTEAASPRPSSEDLPLQGSPDSSTSPKQKLSSPEADKGPEEEENKVLARKQKMRTVFSQAQLCALKDRFQKQKYLSLQQMQELSSILNLSYKQVKTWFQNQRMKCKRWQKNQWLKTSNGLIQKGSAPVEYPSIHCSYPQGYLVNASGSLSMWGSQTWTNPTWSSQTWTNPTWNNQTWTNPTWSSQAWTAQSWNGQPWNAAPLHNFGEDFLQPYVQLQQNFSASDLEVNLEATRESHAHFSTPQALELFLNYSVTPPGEI
As to B3, in assay [1], the binding result is recorded as “binds”.
